Here are results for two molecules from paper PMC8440614.

Amino acid sequences for entries named in this document (tags omitted).
UniProt O75626: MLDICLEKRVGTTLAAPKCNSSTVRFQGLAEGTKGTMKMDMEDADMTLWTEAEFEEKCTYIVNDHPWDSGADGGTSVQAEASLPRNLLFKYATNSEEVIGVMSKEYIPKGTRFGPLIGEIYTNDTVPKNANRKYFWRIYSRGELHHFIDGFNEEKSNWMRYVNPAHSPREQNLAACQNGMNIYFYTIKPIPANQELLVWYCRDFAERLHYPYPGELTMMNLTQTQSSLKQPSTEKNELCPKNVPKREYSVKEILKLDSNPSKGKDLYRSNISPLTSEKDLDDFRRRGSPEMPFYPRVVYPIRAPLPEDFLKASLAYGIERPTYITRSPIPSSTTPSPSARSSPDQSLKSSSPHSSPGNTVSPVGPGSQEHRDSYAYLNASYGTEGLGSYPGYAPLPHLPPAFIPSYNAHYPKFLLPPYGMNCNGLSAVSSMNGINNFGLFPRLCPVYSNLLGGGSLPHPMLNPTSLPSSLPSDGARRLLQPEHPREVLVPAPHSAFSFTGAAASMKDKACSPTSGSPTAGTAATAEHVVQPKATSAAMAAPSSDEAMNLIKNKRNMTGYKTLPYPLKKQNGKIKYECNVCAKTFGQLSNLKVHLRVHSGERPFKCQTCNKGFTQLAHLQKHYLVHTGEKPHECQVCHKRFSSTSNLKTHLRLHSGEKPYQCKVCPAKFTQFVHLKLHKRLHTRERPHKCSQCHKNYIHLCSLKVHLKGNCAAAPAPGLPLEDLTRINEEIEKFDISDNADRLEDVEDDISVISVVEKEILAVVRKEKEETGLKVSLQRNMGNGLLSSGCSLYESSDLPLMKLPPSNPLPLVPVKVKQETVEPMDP

The target of experiment [1] is T1, Absent in melanoma 2 (AIM2) (human (endogenous in tonsil CD19+ B cells)) (UniProt O14862).
T1 sequence: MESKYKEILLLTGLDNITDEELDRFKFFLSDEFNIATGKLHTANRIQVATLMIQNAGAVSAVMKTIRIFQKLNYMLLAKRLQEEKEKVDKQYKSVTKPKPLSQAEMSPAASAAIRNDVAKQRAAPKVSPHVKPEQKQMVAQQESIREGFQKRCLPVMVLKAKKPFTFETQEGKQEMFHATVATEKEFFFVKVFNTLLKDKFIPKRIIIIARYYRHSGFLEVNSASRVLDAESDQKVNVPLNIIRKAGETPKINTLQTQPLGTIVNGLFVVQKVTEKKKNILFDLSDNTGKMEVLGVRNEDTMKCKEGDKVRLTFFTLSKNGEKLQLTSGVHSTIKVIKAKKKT
Description: co-IP; endogenous proteins; total proteins of CD19+ B cells from human tonsils; detection by western blotting. (In general: In western blotting, separated proteins are transferred to a membrane and probed.)

Substrate in experiment [2]: B lymphocyte-induced maturation protein 1 (Blimp-1) (human (endogenous in tonsil CD19+ B cells)) (UniProt O75626)
Described as above.

No constants are given. Whether binding was seen depends on the method and setting. In cells and extracts the contact can be indirect. Some results given as binding are weak or reduced against the parent protein; the word gives no strength.

As to “B lymphocyte-induced maturation protein 1 (Blimp-1) (from UniProt O75626 1-825)”, the binding result in experiment [1] is on record as “binds”.

B1: Absent in melanoma 2 (AIM2) (protein, UniProt O14862 1-343)
chain: T1 sequence
For the molecule B1, in experiment [2], the binding result was “binds”.
